Source: PubChem BioAssay AID210 (DTP/NCI, 2004)
The list shows only some results of the screen, not a fair sample: it gathers tests that were run many times, whatever their T/C, doses with no T/C, and many T/C values between a quarter and a half above the control. Further doses and runs are listed elsewhere. T/C is the treated group as % of the vehicle group. Some entries give survivors of the animals treated and no T/C: the source holds a T/C of zero for them, seemingly a mark for toxic or unscored doses. Some doses without a T/C left all or most animals alive at the check, yet need not have been tolerated: survival well below the control is almost never listed, so the zero probably covers shortened survival too. Survivors were counted at the toxicity check, usually on the fifth day, unless a day is given; later deaths do not show. Schedule codes are those of the source, taken here to give the interval after Q, in days (D) or hours (H), and the number of doses after X. Some molecules as drawn cover several salts, stereoisomers or complexes of the source; a dose is that of the sample tested. Additions like (4×) count equal records among those shown. Some doses were run more than once; their values stand side by side, smallest first. For survival time, this PubChem deposit counts one and a half times the control or more as active, and values a quarter to a half above the control carry no call in these data; other NCI protocols may use other cut-offs. Some T/C values carry the count of animals alive at the toxicity check (mostly the fifth day); without a count, all were alive then.

System: CD2F1 mice, ip Colon 26 adenocarcinoma, median survival T/C
Test: NCI In Vivo Anticancer Drug Screen. Data for tumor model Colon 26 Adenocarcinoma (intraperitoneal) in CD2F1 (CDF1) mice
Conditions: T/C endpoint: median survival time, higher T/C = longer survival
Procedure: The antitumor activity of compounds was measured in mice bearing transplantable tumors. Survival or tumor size were measured and the results are expressed as the measurement made in the treated group (T) divided by the measurement made in the vehicle treated control group (C). The tumor model used in this assay is Colon 26 Adenocarcinoma (intraperitoneal) in CD2F1 (CDF1) mice

Question: Which T/C (dose: 2.0 mg/kg/injection, schedule: Q01DX009 (ip), vehicle: acid diluted with saline) does the source give for `O=C1c2ccccc2C(=O)c2c(NCCNCCO)ccc(NCCNCCO)c21` here?
Answer: The T/C was 142 % of control.

Question: What about the T/C (dose: 10.4 mg/kg/injection, schedule: Q04DX003 (ip), vehicle: saline) of the same compound?
Answer: The T/C was 145 % of control.

Question: And the survivor count (dose: 20.0 mg/kg/injection, schedule: Q01DX009 (ip), vehicle: saline)?
Answer: The survivor count was 10 of 10.

Question: What about the T/C (dose: 21.6 mg/kg/injection, schedule: Q01DX001 (ip), vehicle: saline) of the same compound?
Answer: Its T/C is 136 % of control.

Question: What about the survivor count (dose: 30.0 mg/kg/injection, schedule: Q01DX009 (ip), vehicle: saline) of the same compound?
Answer: The survivor count was 10 of 10.

Question: What about the survivor count (dose: 32.0 mg/kg/injection, schedule: Q01DX009 (ip), vehicle: saline) of the same compound?
Answer: Its survivor count is 10 of 10.

Question: What about the T/C (dose: 32.0 mg/kg/injection, schedule: Q04DX003 (ip), vehicle: Klucel (hydroxypropylcellulose) (HPC)) of the same compound?
Answer: Its T/C is 141 % of control.

Question: What about the T/C (dose: 36.0 mg/kg/injection, schedule: Q01DX001 (ip), vehicle: saline) of the same compound?
Answer: Its T/C is 138 % of control.

Question: And the survivor count (dose: 40.0 mg/kg/injection, schedule: Q01DX009 (ip), vehicle: saline)?
Answer: The survivor count was 10 of 10 (2×).

Question: And the T/C (dose: 60.0 mg/kg/injection, schedule: Q01DX001 (ip), vehicle: saline)?
Answer: Its T/C is 127 % of control.

Question: And the T/C (dose: 64.0 mg/kg/injection, schedule: Q04DX003 (ip), vehicle: Klucel (hydroxypropylcellulose) (HPC))?
Answer: The T/C was 148 % of control.

Question: And the T/C (dose: 100.0 mg/kg/injection, schedule: Q01DX001 (ip), vehicle: saline)?
Answer: Its T/C is 138 % of control [9 of 10 alive].

Question: What about the survivor count (dose: 100.0 mg/kg/injection, schedule: Q07DX003 (iv), vehicle: Klucel (hydroxypropylcellulose) (HPC)) of the same compound?
Answer: Its survivor count is 4 of 10.

Question: And the survivor count (dose: 128.0 mg/kg/injection, schedule: Q04DX003 (ip), vehicle: Klucel (hydroxypropylcellulose) (HPC))?
Answer: The survivor count was 4 of 10, 7 of 10, 9 of 10.

Question: What about the survivor count (dose: 128.0 mg/kg/injection, schedule: Q04DX003 (ip), vehicle: water) of the same compound?
Answer: Its survivor count is 5 of 10 and 6 of 10.

Question: And the survivor count (dose: 167.0 mg/kg/injection, schedule: Q01DX001 (ip), vehicle: saline)?
Answer: Its survivor count is 2 of 10.

Question: And the survivor count (dose: 200.0 mg/kg/injection, schedule: Q07DX003 (iv), vehicle: Klucel (hydroxypropylcellulose) (HPC))?
Answer: Its survivor count is 4 of 10.

Question: And the survivor count (dose: 256.0 mg/kg/injection, schedule: Q04DX003 (ip), vehicle: Klucel (hydroxypropylcellulose) (HPC))?
Answer: The survivor count was 0 of 10, 0 of 9, 1 of 10.

Question: What about the survivor count (dose: 256.0 mg/kg/injection, schedule: Q04DX003 (ip), vehicle: water) of the same compound?
Answer: The survivor count was 2 of 10 and 5 of 10.

Question: And the survivor count (dose: 400.0 mg/kg/injection, schedule: Q07DX003 (iv), vehicle: Klucel (hydroxypropylcellulose) (HPC))?
Answer: Its survivor count is 2 of 10.

Question: What about the survivor count (dose: 512.0 mg/kg/injection, schedule: Q04DX003 (ip), vehicle: Klucel (hydroxypropylcellulose) (HPC)) of the same compound?
Answer: Its survivor count is 0 of 10 (2×).

Question: With `NC(=O)c1cn(C2OC(CO)C(O)C2O)c2ncnc(N)c12` (stereo not drawn) as the compound, how does the T/C (dose: 0.5 mg/kg/injection, schedule: Q04DX003 (ip), vehicle: Klucel (hydroxypropylcellulose) (HPC)) read?
Answer: Its T/C is 139 % of control.

Question: What about the T/C (dose: 1.0 mg/kg/injection, schedule: Q04DX003 (ip), vehicle: Klucel (hydroxypropylcellulose) (HPC)) of the same compound?
Answer: Its T/C is 140 % of control.

Question: And the T/C (dose: 4.0 mg/kg/injection, schedule: Q04DX003 (ip), vehicle: Klucel (hydroxypropylcellulose) (HPC))?
Answer: Its T/C is 144 % of control.

Question: What about the survivor count (dose: 8.0 mg/kg/injection, schedule: Q04DX003 (ip), vehicle: Klucel (hydroxypropylcellulose) (HPC)) of the same compound?
Answer: The survivor count was 4 of 10.

Question: For `COc1ccc2c(c1O)-c1cccc3c1[C@@H](C2)N(CCCl)CC3`, which survivor count (dose: 64.0 mg/kg/injection, schedule: Q04DX002 (ip), vehicle: Klucel (hydroxypropylcellulose) (HPC)) is on record?
Answer: The survivor count was 8 of 10.

Question: What about the survivor count (dose: 128.0 mg/kg/injection, schedule: Q04DX002 (ip), vehicle: Klucel (hydroxypropylcellulose) (HPC)) of the same compound?
Answer: Its survivor count is 2 of 10.

Question: For `COc1cccc2c1C(=O)c1c(O)c3c(c(O)c1C2=O)C[C@@](O)(C(=O)CO)C[C@@H]3OC1CC(N)C(O)C(C)O1` (stereo partly drawn), which T/C (dose: 0.5 mg/kg/injection, schedule: Q04DX003 (ip), vehicle: saline) is on record?
Answer: Its T/C is 140 % of control.

Question: What about the T/C (dose: 1.0 mg/kg/injection, schedule: Q04DX003 (ip), vehicle: saline) of the same compound?
Answer: The T/C was 136 % of control.

Question: And the T/C (dose: 2.88 mg/kg/injection, schedule: Q04DX003 (ip), vehicle: water)?
Answer: Its T/C is 148 % of control.

Question: And the survivor count (dose: 4.0 mg/kg/injection, schedule: Q01DX009 (ip), vehicle: saline)?
Answer: The survivor count was 10 of 10.

Question: What about the T/C (dose: 6.0 mg/kg/injection, schedule: Q07DX003 (iv), vehicle: saline) of the same compound?
Answer: Its T/C is 140 % of control.

Question: What about the survivor count (dose: 8.0 mg/kg/injection, schedule: Q04DX003 (ip), vehicle: saline) of the same compound?
Answer: Its survivor count is 10 of 10.

Question: What about the survivor count (dose: 8.0 mg/kg/injection, schedule: Q04DX003 (ip), vehicle: water) of the same compound?
Answer: Its survivor count is 8 of 8.

Question: And the T/C (dose: 8.1 mg/kg/injection, schedule: Q07DX002 (ip), vehicle: saline)?
Answer: The T/C was 148 % of control.

Question: What about the T/C (dose: 10.5 mg/kg/injection, schedule: Q07DX003 (iv), vehicle: saline) of the same compound?
Answer: The T/C was 133 % of control.

Question: And the T/C (dose: 14.0 mg/kg/injection, schedule: Q07DX002 (iv), vehicle: saline)?
Answer: Its T/C is 133 % of control.

Question: And the T/C (dose: 14.7 mg/kg/injection, schedule: Q07DX002 (iv), vehicle: saline)?
Answer: Its T/C is 142 % of control.

Question: What about the survivor count (dose: 19.0 mg/kg/injection, schedule: Q07DX002 (iv), vehicle: saline) of the same compound?
Answer: Its survivor count is 10 of 10.

Question: And the survivor count (dose: 21.0 mg/kg/injection, schedule: Q07DX002 (iv), vehicle: saline)?
Answer: Its survivor count is 7 of 10.

Question: And the survivor count (dose: 24.0 mg/kg/injection, schedule: Q07DX003 (iv), vehicle: saline)?
Answer: Its survivor count is 10 of 10.

Question: For `Nc1ncnc2c1ncn2C1OC(CO)C(O)C1O` (stereo not drawn), which survivor count (dose: 512.0 mg/kg/injection, schedule: Q04DX002 (ip), vehicle: Klucel (hydroxypropylcellulose) (HPC)) is on record?
Answer: The survivor count was 10 of 10.

Question: `Nc1nncs1` was tested. Which T/C (dose: 100.0 mg/kg/injection, schedule: Q04DX003 (ip), vehicle: saline) did it give?
Answer: The T/C was 125 % of control.

Question: And the survivor count (dose: 200.0 mg/kg/injection, schedule: Q01DX005 (ip), vehicle: saline)?
Answer: Its survivor count is 8 of 10.

Question: And the T/C (dose: 200.0 mg/kg/injection, schedule: Q04DX003 (ip), vehicle: saline)?
Answer: The T/C was 132 % of control.

Question: What about the survivor count (dose: 400.0 mg/kg/injection, schedule: Q01DX005 (ip), vehicle: saline) of the same compound?
Answer: Its survivor count is 6 of 10.

Question: And the T/C (dose: 400.0 mg/kg/injection, schedule: Q04DX003 (ip), vehicle: saline)?
Answer: Its T/C is 138 % of control.

Question: What about the survivor count (dose: 800.0 mg/kg/injection, schedule: Q01DX005 (ip), vehicle: saline) of the same compound?
Answer: Its survivor count is 2 of 10.

Question: What about the T/C (dose: 800.0 mg/kg/injection, schedule: Q04DX003 (ip), vehicle: saline) of the same compound?
Answer: Its T/C is 145 % of control.

Question: What does the source list for `CC1(CO)C(=O)CCC2(C)C1CCC1CC3CC12CCC3(O)CO` (stereo not drawn)?
Answer: survivor count (dose: 300.0 mg/kg/injection, schedule: Q04DX002 (ip), vehicle: distilled water + Tween-80): 10 of 10; survivor count (dose: 600.0 mg/kg/injection, schedule: Q04DX002 (ip), vehicle: distilled water + Tween-80): 10 of 10

Question: Which results are given for `Nc1n[nH]c(N)n1`?
Answer: T/C (dose: 100.0 mg/kg/injection, schedule: Q04DX003 (ip), vehicle: saline, evaluated on day 60): 100 and 109 % of control; T/C (dose: 100.0 mg/kg/injection, schedule: Q04DX003 (ip), vehicle: saline, evaluated on day 70): 96 and 108 % of control; T/C (dose: 200.0 mg/kg/injection, schedule: Q04DX003 (ip), vehicle: saline, evaluated on day 60): 107 and 116 % of control; T/C (dose: 200.0 mg/kg/injection, schedule: Q04DX003 (ip), vehicle: saline, evaluated on day 70): 100, 108, 109 % of control; T/C (dose: 400.0 mg/kg/injection, schedule: Q04DX003 (ip), vehicle: saline, evaluated on day 60): 110 and 112 % of control; T/C (dose: 400.0 mg/kg/injection, schedule: Q04DX003 (ip), vehicle: saline, evaluated on day 70): 109 (2×) and 110 % of control; T/C (dose: 800.0 mg/kg/injection, schedule: Q04DX003 (ip), vehicle: saline, evaluated on day 60): 112 and 121 % of control; T/C (dose: 800.0 mg/kg/injection, schedule: Q04DX003 (ip), vehicle: saline, evaluated on day 70): 108, 109, 129 % of control; T/C (dose: 1600.0 mg/kg/injection, schedule: Q04DX003 (ip), vehicle: saline, evaluated on day 60): 112 and 116 % of control; T/C (dose: 1600.0 mg/kg/injection, schedule: Q04DX003 (ip), vehicle: saline, evaluated on day 70): 94, 109, 121 % of control

Question: For `COC1C(O)C(C)OC(OC2C(Oc3cccc4c(O)c5c(=O)oc6ccc(C)c7c(=O)oc(c34)c5c67)OC(C)C(O)C2O)C1O` (stereo not drawn), which survivor count (dose: 200.0 mg/kg/injection, schedule: Q04DX002 (ip), vehicle: Klucel (hydroxypropylcellulose) (HPC)) is on record?
Answer: Its survivor count is 0 of 10 and 6 of 10.

Question: What about the survivor count (dose: 200.0 mg/kg/injection, schedule: Q04DX003 (ip), vehicle: Klucel (hydroxypropylcellulose) (HPC)) of the same compound?
Answer: The survivor count was 0 of 10.
